According to patent US20210145768A1, “MODULATING IMMUNE RESPONSE VIA TARGETING OF OLFACTORY RECEPTOR ACTIVITY” (La Jolla Institute for Allergy and Immunology, priority 2018, published 2021):

Assay: Plasma octanal quantification by stable isotope dilution LC/MS/MS, mouse

CCCCCCCC=O [octanal]
octanal in plasma (Apoe−/− mice receiving CD and WD, endogenous): elevated | octanal level in plasma, average (C57BL/6J mice fed WD, endogenous): 3.5 µM | octanal concentration, fold less than wild-type mice (mice lacking gut microbiota (germ free) vs wild-type): 3 fold
